From article PMC6521049
No constants are given. Whether binding was seen depends on the method and setting. Binding seen in cells or lysates may run through a third protein. Some binding calls cover weakened binding; strength is not graded here.

The chains behind the UniProt entries cited, without tags or fusion partners.
UniProt P08670: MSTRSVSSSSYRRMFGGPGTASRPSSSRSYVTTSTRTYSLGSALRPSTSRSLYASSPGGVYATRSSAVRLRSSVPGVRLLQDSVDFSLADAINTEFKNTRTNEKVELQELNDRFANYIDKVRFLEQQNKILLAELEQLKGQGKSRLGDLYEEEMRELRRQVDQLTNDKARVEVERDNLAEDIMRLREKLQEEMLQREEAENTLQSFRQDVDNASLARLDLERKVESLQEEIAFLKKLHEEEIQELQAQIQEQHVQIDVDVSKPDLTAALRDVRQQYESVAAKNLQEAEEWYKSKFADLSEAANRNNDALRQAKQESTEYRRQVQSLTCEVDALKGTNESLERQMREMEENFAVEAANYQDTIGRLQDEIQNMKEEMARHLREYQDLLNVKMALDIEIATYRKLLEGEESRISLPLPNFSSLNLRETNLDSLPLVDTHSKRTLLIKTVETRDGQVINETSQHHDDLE
UniProt P49840: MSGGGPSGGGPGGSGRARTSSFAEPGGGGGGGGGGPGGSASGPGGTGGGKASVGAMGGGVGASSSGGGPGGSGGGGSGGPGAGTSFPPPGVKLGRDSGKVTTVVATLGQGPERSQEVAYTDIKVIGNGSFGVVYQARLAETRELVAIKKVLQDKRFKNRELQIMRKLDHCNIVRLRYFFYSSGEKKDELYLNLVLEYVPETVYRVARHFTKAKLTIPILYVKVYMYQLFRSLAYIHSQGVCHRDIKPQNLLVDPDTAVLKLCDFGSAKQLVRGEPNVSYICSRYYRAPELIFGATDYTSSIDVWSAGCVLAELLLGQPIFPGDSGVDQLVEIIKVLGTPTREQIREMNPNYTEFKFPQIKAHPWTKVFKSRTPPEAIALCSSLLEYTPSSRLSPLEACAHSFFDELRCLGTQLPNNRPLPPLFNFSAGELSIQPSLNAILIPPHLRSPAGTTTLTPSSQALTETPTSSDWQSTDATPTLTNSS
UniProt P49841: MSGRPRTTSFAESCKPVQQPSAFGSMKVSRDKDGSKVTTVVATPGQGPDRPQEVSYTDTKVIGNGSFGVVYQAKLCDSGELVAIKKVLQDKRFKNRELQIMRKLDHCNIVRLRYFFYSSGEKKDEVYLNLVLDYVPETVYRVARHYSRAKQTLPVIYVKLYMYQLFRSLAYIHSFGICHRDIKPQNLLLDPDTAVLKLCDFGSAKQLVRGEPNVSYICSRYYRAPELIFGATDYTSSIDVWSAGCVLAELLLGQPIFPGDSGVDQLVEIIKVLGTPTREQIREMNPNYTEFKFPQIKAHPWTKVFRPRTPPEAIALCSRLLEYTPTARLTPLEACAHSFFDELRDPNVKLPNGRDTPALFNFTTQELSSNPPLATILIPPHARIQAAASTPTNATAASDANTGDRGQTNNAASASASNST

How the values were obtained:
[1] = biological target: vimentin (human (endogenous in U251)) (UniProt P08670); test: co-sedimentation; vimentin solubilized and precipitated by a series of buffer exchanges in two cycles of dialysis, followed by Western blotting for GSK-3
[2] = biological target: glutathione-s-transferase (GST)-GSK-3α fusion protein (UniProt P49840); test: pull-down; GST-GSK-3 (α or β) transiently expressed in U251 cells; 500 μg TX100 protein extract incubated with glutathione agarose beads at 4 °C for 1 h, washed with TX100 lysis buffer; Western blot for vimentin
[3] = biological target: glutathione-s-transferase (GST)-GSK-3β fusion protein (UniProt P49841); test: as above
[4] = biological target: yellow-fluorescent protein (YFP)-vimentin fusion protein (human) (UniProt P08670); test: FRET or BRET; CFP and YFP fusion proteins transiently expressed in live U251 cells; confocal microscopy (Zeiss LSM510)

## GSK-3β (from UniProt P49841 1-420) (enzyme)
[1]
  binding: binds

## GSK-3α (from UniProt P49840 1-483) (enzyme)
[1]
  binding: binds

## vimentin (from UniProt P08670 1-466)
[2]
  binding: binds
[3]
  binding: binds

## cyan-fluorescent protein (CFP)-GSK-3β fusion protein (from UniProt P49841 1-420) (enzyme)
[4]
  binding: binds
